The target of the test is VKORC1 (UniProt Q9BQB6). The test is described as follows: NP40-soluble protein abundance relative to vehicle (solubility fold change) (ratio); higher = more soluble protein in presence of ATP. The gist of the method: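 Values are fold changes against the detergent-processed vehicle, based on vsn-normalised intensities. Jurkat crude lysate was treated at eight concentrations from 0.1 to 10 mM (10 min at room temperature, then 3 min at 37 °C), solubilised with 0.8% NP40 and benzonase, ultracentrifuged and analysed by TMT-labelled LC-MS/MS over three independent experiments.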

The structures appear in SMILES notation. ± gives the standard deviation of the averaged measurements. Only a part is listed here, and it is no random draw. Small differences around the control level are noise.

With `Nc1ncnc2c1ncn2[C@@H]1O[C@H](COP(=O)(O)OP(=O)(O)OP(=O)(O)O)[C@@H](O)[C@H]1O` [adenosine triphosphate], the NP40-soluble protein abundance by setting is: (concentration: 0.1mM) 1.02 ± 0.042; (concentration: 0.5mM) 0.978 ± 0.056.

These data come from the supplement of paper PMC6411743.
